In PubChem BioAssay AID540256 (National Center for Advancing Translational Sciences (NCATS), 2011):
Screen size: about 300,000 compounds; about 3,700 (1.2%) were called active. Inconclusive means that the source gave no clear call. Such entries were picked first, then a sample of the others. Calls follow the shape of the full dose curve; tested in HEK293 cells. Potencies of inconclusive entries are doubtful fits and often do not repeat.

Assay: qHTS for Inhibitors of binding or entry into cells for Lassa Virus; also: nearly all actives have a fitted effect of over 50% in size
Conditions: Lassa virus pseudotype entry inhibition, cell reporter; series mostly up to 37.9 µM
Potency is read from the fitted curve at half-maximal effect.

| Compound | Potency |
| --- | --- |
| CCn1cc(S(=O)(=O)c2cccc(C)c2)c(=O)c2cc(F)c(N3CCN(c4ccccc4)CC3)cc21 | inactive |
| COCCCn1c(=O)c2sccc2n2c(CCCC(=O)NCc3ccc(F)cc3)nnc12 | inactive |
| CC(=O)N1CCc2cc(NC(=O)c3ccc(C)cc3)ccc21 | active: 16.4 µM |
| Cc1ccc(OCC(=O)Nc2ccc3c(c2)OCO3)c(C)c1 | inconclusive: 35.5 µM [inhibitor, single point] |
| Nc1ccc2c(c1Br)Cc1ccccc1-2 | inactive |
| CCC(C)N(C(=O)COc1ccc(Br)cc1C=O)C1CCS(=O)(=O)C1 (configuration not stated) | inactive |
| CNC(=O)c1c2c(nc3ccc(Br)cc13)CCCC2 | inconclusive: 22.4 µM [inhibitor, partial curve, poor fit] |
| COCCNC(=S)N(CCc1c(C)[nH]c2ccc(OC)cc12)Cc1ccco1 | inconclusive: 20 µM [inhibitor, partial curve, poor fit] |
| CCN(C(=O)CSc1nc2ccccc2n1CC(=O)Nc1ccc(F)cc1F)c1ccccc1 | active: 11.2 µM |
| CCN(C(=O)CSc1nc2n[nH]c(C)c2c(=N)n1-c1cccc(OC)c1)c1cccc(C)c1 | inactive |
| COc1cc(OC)c(N2CC(C(=O)Nc3cc(Cl)ccc3N3CCOCC3)CC2=O)cc1Cl (configuration not stated) | inconclusive: 4.47 µM [inhibitor, single point] |
| CC1=C(n2nnc([N+](=O)[O-])n2)C(c2cccnc2)C(C#N)=C(N)O1 (configuration not stated) | inconclusive: 17.8 µM [inhibitor, single point] |
| Cc1cc(N=Cc2c(O)n(-c3cccc(Cl)c3)c(=O)c3ccccc23)no1 | inconclusive: 12.6 µM [inhibitor, single point] |
| O=C(N/N=C/c1ccc(F)cc1)c1cc(-c2ccccn2)nc2ccccc12 | inactive |
| O=C1NC(c2ccccc2)Nc2c1sc(=S)n2-c1ccccc1 (configuration not stated) | inactive |
| CN(C)CC/C=C1/c2ccc(F)cc2Sc2ccc(Cl)cc21 | inconclusive: 35.5 µM [inhibitor, single point] |
| CCCC(=O)c1cc(F)c(N2CCN(S(=O)(=O)c3ccccc3)CC2)cc1C | inconclusive: 14.6 µM [inhibitor, partial curve] |
| COc1ccc(CCN(C)C(=O)CN2C(=O)c3ccccc3S2(=O)=O)cc1OC | inactive |
| COc1ccc(-c2nnc(SCC(=O)N(C)Cc3ccccc3)o2)cc1OC | inactive |
| CCCCNC(=O)c1ccccc1Cl | inactive |
| N/C(Cc1ccc(Cl)cc1)=N\OC(=O)Cc1ccc([N+](=O)[O-])cc1 | inconclusive: 3.55 µM [inhibitor, full curve, poor fit] |
| Cc1ccc2cccc(N=Cc3c(C)[nH]n(-c4ccccc4)c3=O)c2n1 | inconclusive: 25.1 µM [inhibitor, single point] |
| CNC(=O)c1c(NC(=O)c2ccc(S(=O)(=O)N3CCCCC3C)cc2)sc2c1CCC2 (configuration not stated) | inactive |
| Cc1cnc(C(=O)OCC(=O)Nc2cccc(S(=O)(=O)N3CCOCC3)c2)cn1 | inactive |

Quoted from the listing:
Value of CC1=C(n2nnc([N+](=O)[O-])n2)C(c2cccnc2)C(C#N)=C(N)O1 (configuration not stated) under Potency: inconclusive: 17.8 µM [inhibitor, single point]
Value of O=C1NC(c2ccccc2)Nc2c1sc(=S)n2-c1ccccc1 (configuration not stated) under Potency: inactive
Value of Nc1ccc2c(c1Br)Cc1ccccc1-2 under Potency: inactive
Value of COc1ccc(CCN(C)C(=O)CN2C(=O)c3ccccc3S2(=O)=O)cc1OC under Potency: inactive

Following part

| Compound | Potency |
| --- | --- |
| Cc1ccc(C(=O)N/C(=C\c2cccs2)C(=O)NCCCN2CCOCC2)cc1 | inactive |
| CCCCN(CCCNC(=O)c1c(C)oc2nc[nH]c(=O)c12)Cc1ccccc1 | inactive |
| Clc1cccc(N/N=C/c2ccc(N3CCOCC3)cc2)c1 | inactive |
| Cc1ccc(/C=C2/C(=O)NC(=O)N(C)C2=O)cc1 | inactive |
| O=C(Nc1ccc(Cl)cc1)N1CCSc2ccccc21 | inactive |
| COc1ccc(CNC(=O)c2cnn(-c3ccc(F)cc3)c2-n2cccc2)cc1 | inactive |
| COc1ccc(-n2nnnc2SCC(=O)Nc2ccc3c(c2)OCCO3)cc1OC | inconclusive: 35.5 µM [inhibitor, single point] |
| Cc1cccc(Oc2ccc3c(c2)Oc2ccccc2NC3=O)c1 | inactive |
| O=C(CSc1nnc(-c2ccc(O)cc2)o1)Nc1ccccc1Br | inconclusive: 35.5 µM [inhibitor, single point] |
| CCCCNC(=O)CCCn1c(=O)[nH]c2ccc(Br)cc2c1=O | inconclusive: 10.3 µM [inhibitor, partial curve] |
| COc1ccc(-c2cc(C(=O)NCC(c3ccccc3)N(C)C)c3ccccc3n2)cc1OC (configuration not stated) | inconclusive: 11.2 µM [inhibitor, partial curve, poor fit] |
| COC(=O)c1ccc(N2C(=O)CC(N(C)Cc3ccccc3)C2=O)cc1 (configuration not stated) | inactive |
| OCCC#Cc1ccc(CN2CCN(CCc3ccccc3)C(CCO)C2)cc1 (configuration not stated) | inconclusive: 35.5 µM [activator, partial curve, poor fit] |
| O=C1c2cc3ccccc3c(-c3ccccc3)c2C(=O)N1c1ccccn1 | inconclusive: 17.8 µM [inhibitor, partial curve, poor fit] |
| CCC(=O)Nc1c(-c2ccc(OC)cc2)c(=O)c2ccccc2n1C | inconclusive: 5.8 µM [activator, full curve, poor fit] |
| c1ccc(C2c3c(ccc4ccccc34)Oc3ncn4nc(-c5ccco5)nc4c32)cc1 (configuration not stated) | inactive |
| O=S(=O)(Nc1ccn(-c2ccccc2)n1)c1ccc(Br)cc1 | inconclusive: 11.6 µM [activator, partial curve] |
| O=C(C1CC(=O)N(C2CCCCC2)C1)N1CCN(c2cccc(C(F)(F)F)c2)CC1 (configuration not stated) | inconclusive: 20 µM [inhibitor, single point] |
| Cc1ccccc1N/C=C/C(=C(C#N)C#N)N(C)C | inactive |
| COc1ccc(OC)c(C(=O)c2ccc(C(=O)Nc3ccc4ccccc4c3)cc2)c1 | active: 10 µM |
| Cc1cccc2nc(-c3cccnc3)c(Nc3ccccc3)n12 | inconclusive: 25.1 µM [inhibitor, single point] |
| CN1N=C(C(=O)Nc2ccc3c(c2)CCC3)CCC1=O | inactive |
| Cc1ccccc1NC(=O)N1CCNC(=O)C1CC(=O)Nc1cc(Cl)ccc1Cl (configuration not stated) | inconclusive: 3.16 µM [activator, single point] |
| Cn1cccc1C(=O)NC(=O)COC(=O)c1cc([N+](=O)[O-])ccc1Cl | inconclusive: 5.62 µM [inhibitor, single point] |

| Compound | Potency |
| --- | --- |
| O=C(CNC(=O)c1cccs1)Nc1ncccc1O | inconclusive: 0.501 µM [activator, full curve, poor fit] |
| CCC(C)N1C(=O)CCC1C(=O)O (configuration not stated) | inconclusive: 29.1 µM [activator, partial curve, poor fit] |
| O=C(COc1ccccc1[N+](=O)[O-])NCCC1=CCCCC1 | inconclusive: 2.82 µM [inhibitor, full curve, poor fit] |
| CC1CCN(C(=O)C2CCN(S(=O)(=O)c3cc(Cl)ccc3Cl)CC2)CC1 | inconclusive: 7.08 µM [inhibitor, partial curve, poor fit] |
| CC(=O)Nc1ccc(OCC(=O)c2ccc(C)cc2C)cc1 | inactive |
| N=C1c2c(cc(=O)n3c2[nH]c2ccccc23)CN1CCN1CCOCC1 | inactive |
| CC(Cc1ccc(O)c(O)c1)C(C)Cc1ccc(O)c(O)c1 (configuration not stated) | inconclusive: 35.3 µM [inhibitor, partial curve, poor fit] |
| CCOC(=O)c1cc(-c2ccccc2)n(-c2cccc(C(=O)Nc3cccc(C(C)=O)c3)c2)c1C | inactive |
| CCN(CC)S(=O)(=O)c1cccc(C(=O)Nc2nc3cc4c(cc3s2)OCCO4)c1 | inconclusive: 7.3 µM [inhibitor, single point] |
| CCn1cc(S(=O)(=O)NC2CCCCC2)cn1 | inconclusive: 31.6 µM [activator, single point] |
| O=Cc1cccn1-c1sc2c(c1C(=O)O)CCCC2 | inconclusive: 0.146 µM [inhibitor, single point] |
| CC(C)c1nc(-c2c(N)n(C)c(=O)n(C)c2=O)sc1C(=O)C(C)(C)C | inconclusive: 7.3 µM [inhibitor, partial curve] |
| Nc1nc(NCc2ccco2)nc(Nc2ccccc2)c1[N+](=O)[O-] | inactive |
| COC(=O)c1ccc(OCC2c3cc(OC)c(OC)cc3CCN2C(=O)c2ccco2)cc1 (configuration not stated) | active: 4.11 µM |
| COc1cc(C(=O)N/N=C/C23CC[C@@H](O)CC2(O)CC[C@@H]2[C@@H]3CCC3(C)C(C4=CC(=O)OC4)CCC23O)ccc1O (some centres not stated) | inconclusive: 14.1 µM [inhibitor, single point] |
| CCn1c(SC(C)C(=O)NC2CCCc3ccccc32)nnc1-c1cccs1 (configuration not stated) | inconclusive: 10 µM [inhibitor, partial curve] |
| Cc1ccc(C2/C(=C(/O)c3cnn(-c4ccccc4)c3C)C(=O)C(=O)N2CCN2CCOCC2)o1 (configuration not stated) | inconclusive: 14.1 µM [activator, partial curve, poor fit] |
| CCCCOc1ccc(C(=O)N/C(=C\c2ccc(Br)cc2)C(=O)NC2CCCCC2)cc1 | inactive |
| CSCCC(NS(=O)(=O)c1ccc2c(c1)oc(=O)n2C)C(=O)N1CCN(c2ccc(F)cc2)CC1 (configuration not stated) | inactive |
| CC1CCCN(c2nc3c(c(=O)n(C)c(=O)n3C)n2CCSc2nc3ccccc3s2)C1 (configuration not stated) | inconclusive: 20.6 µM [inhibitor, partial curve] |
| CCCOc1ccc(-c2c(C(=O)N/N=C/c3cccs3)nnn2-c2nonc2N)cc1 | inconclusive: 10 µM [inhibitor, partial curve, poor fit] |
| O=C(CN(Cc1cccs1)C(=O)CSc1nnc(COc2ccccc2)o1)NC1CCCCC1 | inconclusive: 14.1 µM [inhibitor, single point] |
| CCOC(=O)N1CCN(C(=S)Nc2cc(S(=O)(=O)N3CCOCC3)ccc2Cl)CC1 | inconclusive: 20 µM [inhibitor, single point] |
| CC1CCc2c(sc(NC(=O)COc3ccccc3C(C)(C)C)c2C#N)C1 (configuration not stated) | inconclusive: 15.8 µM [activator, single point] |

As a working copy, some entries already given.

| Compound | Potency |
| --- | --- |
| CC(=O)Nc1ccc(OCC(=O)c2ccc(C)cc2C)cc1 | inactive |
| N=C1c2c(cc(=O)n3c2[nH]c2ccccc23)CN1CCN1CCOCC1 | inactive |
